Source: the supplement of paper PMC6078165
± gives the standard deviation of the averaged measurements. Values are relative to the signal before dosing, not to a vehicle control; the signal also falls without drug.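 Cells used are triple-negative breast cancer lines, either basal-like or mesenchymal-like, grown in the absence of fibroblasts. Lower red signal means mitochondrial integrity is lost, a surrogate for apoptosis.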 Numbered stars: 1 amine (or outer) side, 2 acyl side, 3 side chain; on linkers, the order of the positions; unused ones are H or OH. Bridge positions count the residues as written; N and C are the ends. Square brackets hold non-standard residues; d marks the D form. Peptide text beside a SMILES is read from it. I, II: the chains in the order shown. Actinocin(9to1) = Cc1c2oc3c(C)ccc(C(=O)[*:1])c3nc-2c(C(=O)[*:2])c(N)c1=O; NMeV = CN[C@H](C(=O)O)C(C)C; Sar = CNCC(=O)O

Key:
Test in all cases: relative JC-1 red fluorescence (viability) vs pre-drug, monoculture (fraction); higher = more viable cancer cells
Conditions in all cases: coculture fibroblast: none (monoculture)
[1] = test system: BT20
Procedure: (§1)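 JC-1 labelled TNBC cells grown in monoculture (density kept equal with unlabelled cancer cells) in 384-well plates in FluoroBrite medium, treated with one of 42 anticancer drugs at 0.1, 1, 10 or 100 uM. JC-1 red fluorescence (mitochondrial integrity, surrogate of apoptotic death) was read by plate reader every 8 h for 72 h. Values are normalised to each well's pre-drug value, with background from alamethicin. The stock of one drug was tenfold lower, so its dose labels may be too high. Monoculture values are repeated alongside each fibroblast plate and are averaged here.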

[2] = test system: Hs578T
Procedure: as §1

[3] = test system: HCC1143
Procedure: as §1

[4] = test system: MDAMB468
Procedure: as §1

Cc1c2oc3c(C)ccc(C(=O)N[C@@H]4C(=O)N[C@H](C(C)C)C(=O)N5CCC[C@H]5C(=O)N(C)CC(=O)N(C)[C@@H](C(C)C)C(=O)O[C@@H]4C)c3nc-2c(C(=O)N[C@@H]2C(=O)N[C@H](C(C)C)C(=O)N3CCC[C@H]3C(=O)N(C)CC(=O)N(C)[C@@H](C(C)C)C(=O)O[C@@H]2C)c(N)c1=O [Dactinomycin] (I: T[dV]P[Sar][NMeV] / II: T[dV]P[Sar][NMeV]; ester I:1-I:C, II:1-II:C; linker I:N-II:N via Actinocin(9to1))
relative JC-1 red fluorescence
Conditions	8 h	16 h	24 h	32 h	40 h	48 h	56 h	64 h	72 h
[1], 0.1 µM	0.929 ± 0.012	0.893 ± 0.024	0.883 ± 0.018	0.818 ± 0.036	0.786 ± 0.037	0.787 ± 0.022	0.772 ± 0.011	0.7833 ± 0.0022	0.7749 ± 0.0065
[1], 1 µM	0.9112 ± 0.0048	0.841 ± 0.015	0.857 ± 0.011	0.782 ± 0.025	0.766 ± 0.027	0.775 ± 0.04	0.754 ± 0.042	0.769 ± 0.053	0.773 ± 0.06
[1], 10 µM	0.891 ± 0.013	0.823 ± 0.015	0.8444 ± 0.0067	0.744 ± 0.0093	0.701 ± 0.01	0.7083 ± 0.0054	0.694 ± 0.018	0.712 ± 0.034	0.721 ± 0.033
[1], 100 µM	0.848 ± 0.019	0.6976 ± 0.0014	0.637 ± 0.022	0.534 ± 0.0088	0.496 ± 0.024	0.492 ± 0.033	0.472 ± 0.029	0.475 ± 0.023	0.463 ± 0.02
[2], 0.1 µM	0.806 ± 0.027	0.6951 ± 0.00052	0.672 ± 0.014	0.569 ± 0.015	0.52 ± 0.02	0.489 ± 0.011	0.469 ± 0.009	0.457 ± 0.0081	0.4567 ± 0.0013
[2], 1 µM	0.797 ± 0.015	0.66 ± 0.034	0.619 ± 0.077	0.527 ± 0.063	0.484 ± 0.061	0.482 ± 0.068	0.468 ± 0.072	0.484 ± 0.071	0.484 ± 0.08
[2], 10 µM	0.773 ± 0.026	0.661 ± 0.01	0.6476 ± 0.0047	0.5564 ± 0.0045	0.514 ± 0.0076	0.505 ± 0.0071	0.498 ± 0.011	0.5101 ± 0.0045	0.5079 ± 0.0037
[2], 100 µM	0.745 ± 0.011	0.6291 ± 0.0037	0.568 ± 0.0065	0.464 ± 0.0047	0.424 ± 0.0052	0.415 ± 0.0083	0.403 ± 0.017	0.412 ± 0.018	0.41 ± 0.02
[3], 0.1 µM	0.838 ± 0.018	0.782 ± 0.018	0.732 ± 0.028	0.687 ± 0.037	0.651 ± 0.04	0.626 ± 0.04	0.606 ± 0.054	0.597 ± 0.068	0.594 ± 0.069
[3], 1 µM	0.813 ± 0.036	0.724 ± 0.027	0.663 ± 0.037	0.61 ± 0.047	0.571 ± 0.044	0.558 ± 0.047	0.542 ± 0.051	0.545 ± 0.049	0.55 ± 0.05
[3], 10 µM	0.788 ± 0.033	0.689 ± 0.03	0.639 ± 0.038	0.585 ± 0.052	0.555 ± 0.05	0.541 ± 0.053	0.526 ± 0.053	0.526 ± 0.056	0.532 ± 0.055
[3], 100 µM	0.823 ± 0.021	0.7275 ± 0.004	0.6352 ± 0.0039	0.5593 ± 0.0034	0.494 ± 0.0095	0.452 ± 0.013	0.417 ± 0.02	0.4 ± 0.026	0.391 ± 0.027
[4], 0.1 µM	0.7987 ± 0.0044	0.7712 ± 0.0041	0.78 ± 0.022	0.745 ± 0.044	0.758 ± 0.022	0.803 ± 0.023	0.807 ± 0.03	0.806 ± 0.026	0.803 ± 0.03
[4], 1 µM	0.778 ± 0.038	0.568 ± 0.018	0.471 ± 0.029	0.388 ± 0.038	0.35 ± 0.05	0.345 ± 0.063	0.313 ± 0.068	0.304 ± 0.075	0.305 ± 0.077
[4], 10 µM	0.675 ± 0.019	0.5363 ± 0.0049	0.477 ± 0.012	0.415 ± 0.015	0.375 ± 0.013	0.381 ± 0.021	0.359 ± 0.023	0.361 ± 0.027	0.363 ± 0.026
[4], 100 µM	0.714 ± 0.0079	0.515 ± 0.06	0.46 ± 0.045	0.388 ± 0.037	0.335 ± 0.031	0.332 ± 0.036	0.306 ± 0.035	0.301 ± 0.038	0.289 ± 0.04
